Measurements published in PMC9850815.
No constants are given. Whether binding was seen depends on the method and setting. Binding seen in cells or lysates may run through a third protein. Some entries that bind do so weakly or less than the wild type.

Amino acid sequences for entries named in this document (tags omitted).
UniProt P40763: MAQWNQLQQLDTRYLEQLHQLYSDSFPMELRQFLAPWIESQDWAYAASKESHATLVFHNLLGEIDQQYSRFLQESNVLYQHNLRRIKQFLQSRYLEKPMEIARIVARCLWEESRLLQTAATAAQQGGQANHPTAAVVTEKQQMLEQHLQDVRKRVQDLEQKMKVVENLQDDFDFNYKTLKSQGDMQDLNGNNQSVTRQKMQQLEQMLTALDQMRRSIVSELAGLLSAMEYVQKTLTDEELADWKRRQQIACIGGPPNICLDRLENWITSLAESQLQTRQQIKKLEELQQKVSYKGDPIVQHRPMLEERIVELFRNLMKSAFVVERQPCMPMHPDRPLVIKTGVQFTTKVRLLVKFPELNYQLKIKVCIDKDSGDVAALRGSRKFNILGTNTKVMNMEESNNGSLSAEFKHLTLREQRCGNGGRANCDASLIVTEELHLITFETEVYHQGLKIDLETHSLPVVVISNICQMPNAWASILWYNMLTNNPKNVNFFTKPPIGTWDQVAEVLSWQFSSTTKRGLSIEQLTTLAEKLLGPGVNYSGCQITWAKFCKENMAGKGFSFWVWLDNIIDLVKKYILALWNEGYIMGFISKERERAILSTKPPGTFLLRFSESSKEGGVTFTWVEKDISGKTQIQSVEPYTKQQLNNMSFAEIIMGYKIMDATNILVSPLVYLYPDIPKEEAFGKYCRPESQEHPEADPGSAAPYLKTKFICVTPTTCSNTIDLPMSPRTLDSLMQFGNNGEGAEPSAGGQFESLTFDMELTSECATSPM

Legend:
TET2-His = TET2-His (UniProt Q6N021); experiment: co-IP; lysate of HEK293T with ectopically expressed TET2 and STAT3 or their domains and deletion mutants, immunoprecipitated with anti-His, anti-Flag or anti-HA antibody at 4 °C overnight, protein A/G agarose, western blot
[1] = target: Ten-eleven translocation protein 2 (TET2), endogenous in HUVECs (human (endogenous in HUVECs)) (UniProt Q6N021); experiment: co-IP; lysates of HUVECs (500 µg) immunoprecipitated with anti-TET2 or anti-STAT3 antibodies at 4 °C overnight, protein A/G agarose, western blot; endogenous proteins

binding (TET2-His)	binding [1]	Substance
binds	–	STAT3-Flag (from UniProt P40763 1-770)
–	binds	Signal transducer and activator of transcription 3 (STAT3), endogenous in HUVECs (from UniProt P40763 1-770)
